Measurements from PubChem BioAssay AID1458 (National Center for Advancing Translational Sciences (NCATS), 2008).
Screen size: about 210,000 compounds; about 5,900 (2.8%) were called active. Another 5% or so got no clear call; they are omitted. Calls follow the shape of the dose curve; as a rule, active = well fitted activation curve with a large enough effect; inconclusive = small, poorly fitted or top-dose-only effect; inactive = no such curve, though single readings can be large or run the other way. The list shows a part of the results, in another mix than the full data. Entries without a call were filed so in the source.

Test: qHTS Assay for Enhancers of SMN2 Splice Variant Expression; also: nearly all actives have a fitted effect of over 55% in size; as to activity change, positive = activation: % of control where 0% means no effect
Settings: HEK293 SMN2-luciferase splicing reporter, luminescence, 30-36 h; activity change, positive = activation: at 46.1 µM (top of the series) unless noted
Outline: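 HEK293 cells carry an SMN2 […]–luciferase reporter in which exon 7 inclusion puts luciferase in frame. Cells were plated 10-12 h before compound addition, then incubated 30-36 h at 37C. ONE-Glo luminescence was read; sodium butyrate at 4.5 mM final served as control.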
Potency is read from the fitted curve at half-maximal effect.

Question: Which activity change, positive = activation does the source give for `CCn1c(O)c(N=NC(=O)c2cccc(S(=O)(=O)N3CCCCC3)c2)c2ccccc21` here?
Answer: The activity change, positive = activation was -69.1%.

Question: With `O=C(O)C1CCCN1c1ncccn1` (stereo not drawn) as the compound, how does the activity change, positive = activation read?
Answer: The activity change, positive = activation was 38.6%.

Question: Which activity change, positive = activation does the source give for `CCOC(=O)N1CCN(C(=O)NC23CC4CC(CC(C4)C2)C3)CC1` here?
Answer: The activity change, positive = activation was 30.9%.

Question: With `Cc1cccc(-n2ncc3c(N4CCOCC4)ncnc32)c1` as the compound, how does the “activity change, positive = activation” value read?
Answer: The value was inactive: -67.7%.

Question: Which activity change, positive = activation does the source give for `Cc1ccc(S(=O)(=O)CCc2nnc(NC(=O)c3cnccn3)s2)cc1` here?
Answer: The activity change, positive = activation was 35.3%.

Question: With `CCS(=O)(=O)N1CCC(C(=O)NCCCOC)CC1` as the compound, how does the activity change, positive = activation read?
Answer: The activity change, positive = activation was 38.2%.

Question: With `Cc1ccccc1OCCn1cc(C(=O)C2CCCCC2)c2ccccc21` as the compound, how does the activity change, positive = activation read?
Answer: The activity change, positive = activation was 51%.

Question: Which activity change, positive = activation does the source give for `CCCCN(C)CC(O)Cn1cc(/C=C/C(=O)c2cccs2)c2ccccc21` (stereo not drawn) here?
Answer: Its activity change, positive = activation is -93.4%.

Question: Which activity change, positive = activation does the source give for `CC(=O)n1cc(C(C[N+](=O)[O-])SCCN)c2ccccc21` (stereo not drawn) here?
Answer: Its activity change, positive = activation is -89.5%.

Question: Which “activity change, positive = activation” value does the source give for `CC(C)(C)c1ccc(-c2noc(CCC(=O)NCC3CCCO3)n2)cc1` (stereo not drawn) here?
Answer: Its value is inactive: -58%.

Question: Which activity change, positive = activation does the source give for `Cc1cccnc1Nc1nc(-c2ccccn2)cs1` here?
Answer: Its activity change, positive = activation is -37.4%.

Question: Which “activity change, positive = activation” value does the source give for `CS(=O)(=O)Nc1ccc(Cc2ccc(NS(C)(=O)=O)cc2)cc1` here?
Answer: Its value is inactive: -42.8%.

Question: Which activity change, positive = activation does the source give for `Cc1cc(/C=C2\SC(=S)N(Cc3ccco3)C2=O)c(C)n1-c1ccccc1` here?
Answer: Its activity change, positive = activation is -63.7%.

Question: For `CCCCOCCCNc1ncnc2c1[nH]c1ccccc12`, which “activity change, positive = activation” value is on record?
Answer: Its value is inactive: -83.1%.

Question: Which activity change, positive = activation does the source give for `CN(c1cccc(NC(=O)Cc2ccccc2)c1)S(C)(=O)=O` here?
Answer: Its activity change, positive = activation is 23.7%.

Question: For `CCOc1ccc(NC(c2ccccn2)c2oc(CO)cc(=O)c2O)cc1` (stereo not drawn), which activity change, positive = activation is on record?
Answer: The activity change, positive = activation was 95.3%.

Question: Which activity change, positive = activation does the source give for `CCCN1C/C(=C/c2cccc([N+](=O)[O-])c2)C(=O)/C(=C/c2cccc([N+](=O)[O-])c2)C1` here?
Answer: Its activity change, positive = activation is -65.2%.

Question: Which activity change, positive = activation does the source give for `CCCc1nnc(SCC(=O)Nc2ccc(OC)cc2)n1N` here?
Answer: Its activity change, positive = activation is 31.3%.

Question: Which activity change, positive = activation does the source give for `O=C(c1ccc(F)cc1)c1cnc(Nc2ccccc2)s1` here?
Answer: Its activity change, positive = activation is 158%.

Question: With `Cc1ccc2nc(COc3ccc(Cl)cc3)cc(=O)n2c1` as the compound, how does the Potency read?
Answer: The Potency was active: 12.6 µM.

Question: For `CCN(C(=O)COC(=O)/C=C/c1c(C)nn(Cc2ccc(C)cc2)c1C)C1CCS(=O)(=O)C1` (stereo not drawn), which “activity change, positive = activation” value is on record?
Answer: The value was inactive: -34.9%.

Question: For `C/C(=N\NC(=O)c1cc(C(C)C)[nH]n1)c1ccco1`, which Potency is on record?
Answer: The Potency was active: 2.82 µM.

Question: For `COc1ccc(CNCCc2ccc(Cl)cc2)cc1OCc1ccccc1`, which “activity change, positive = activation” value is on record?
Answer: Its value is inactive: -54.1%.

Question: With `COc1cc(NC(=O)c2ccco2)c(OC)cc1NC(=O)Nc1ccccc1Cl` as the compound, how does the activity change, positive = activation read?
Answer: The activity change, positive = activation was -5.75%.

Question: For `Cc1cc(OC(=O)c2ccc(S(=O)(=O)N(C)C)cc2)cc(=O)o1`, which activity change, positive = activation is on record?
Answer: Its activity change, positive = activation is 41.3%.

Question: For `Brc1ccc2nc(N3CCCC3)sc2c1`, which activity change, positive = activation is on record?
Answer: The activity change, positive = activation was 37.1%.

Question: Which activity change, positive = activation does the source give for `CCN1CCCC1CNc1ncnc2c1[nH]c1ccc(F)cc12` (stereo not drawn) here?
Answer: The activity change, positive = activation was 30.4%.

Question: With `CC1(C)CC(=O)CC(C)(C)N1OC(=O)c1ccncc1` as the compound, how does the activity change, positive = activation read?
Answer: The activity change, positive = activation was 33.9%.

Question: For `COC(=O)c1c(NC(=O)CCCOc2ccc(C)cc2)sc2c1C(C(=O)OC)CC2` (stereo not drawn), which “activity change, positive = activation” value is on record?
Answer: Its value is inactive: -50.4%.

Question: With `CC(=O)c1ccc(N2CCN(C(C)C(=O)NC3CCCc4ccccc43)CC2)cc1` (stereo not drawn) as the compound, how does the “activity change, positive = activation” value read?
Answer: Its value is inactive: -32.9%.

Question: Which “activity change, positive = activation” value does the source give for `CCOc1ccc(OCC)c(S(=O)(=O)N2CCN(c3cccc(C)c3C)CC2)c1` here?
Answer: Its value is inactive: -30.2%.

Question: With `Cc1ccc(C(=O)NCCNc2ccc([N+](=O)[O-])cc2C(F)(F)F)cc1` as the compound, how does the activity change, positive = activation read?
Answer: Its activity change, positive = activation is -58.6%.

Question: With `O=C(NC(=S)Nc1ccc(S(=O)(=O)N2CCCC2)cc1)C1CCC1` as the compound, how does the activity change, positive = activation read?
Answer: Its activity change, positive = activation is 30.3%.

Question: Which activity change, positive = activation does the source give for `Nc1n[nH]c(N)c1N=Nc1ccc(Cl)cc1Cl` here?
Answer: Its activity change, positive = activation is 65%.

Question: With `O=C(Nc1ccc2c(c1)OCO2)c1noc2c1CCCCC2` as the compound, how does the Potency read?
Answer: Its Potency is active: 5.62 µM.

Question: With `Cc1c(Cl)cn2c(=O)cc(CN3CCN(c4ccc(F)cc4)CC3)nc2c1Cl` as the compound, how does the activity change, positive = activation read?
Answer: Its activity change, positive = activation is -90.1%.

Question: For `CC(=O)c1c(N2CCN(c3cccc(Cl)c3)CC2)nc(=S)n(-c2ccccc2)c1C`, which activity change, positive = activation is on record?
Answer: The activity change, positive = activation was 42.7%.

Question: For `Nc1cc(-c2ccc(Br)cc2)nc2cc(-c3ccccc3)nn12`, which “activity change, positive = activation” value is on record?
Answer: Its value is inactive: -24.9%.

Question: For `CCc1ccc(C(=O)COC(=O)C(Cc2c[nH]c3ccccc23)NC(=O)c2ccc(Br)cc2)cc1` (stereo not drawn), which activity change, positive = activation is on record?
Answer: Its activity change, positive = activation is 14.8%.

Question: For `CC(=O)OCC(=O)[C@@]1(O)[C@H](C)C[C@@H]2[C@H]3CCC4=CC(=O)C=C[C@]4(C)[C@]3(F)[C@@H](O)C[C@@]21C`, which “activity change, positive = activation” value is on record?
Answer: Its value is inactive: -1.6% [at 20.6 µM].

Question: Which “activity change, positive = activation” value does the source give for `CC1CN(S(=O)(=O)c2ccc(C(=O)NCCCn3ccnc3)cc2)CC(C)O1` (stereo not drawn) here?
Answer: The value was inactive: -49.8%.

Question: For `CCN(CC)CCNC(C(=O)Nc1cccc(C(C)=O)c1)c1ccccc1` (stereo not drawn), which activity change, positive = activation is on record?
Answer: The activity change, positive = activation was 50%.

Question: Which Potency does the source give for `COc1ccccc1N1CCN(C(=O)c2cn(-c3ccccc3)nc2-c2cccnc2)CC1` here?
Answer: Its Potency is active: 22.4 µM.

Question: Which “activity change, positive = activation” value does the source give for `COc1cccc(-c2nc(CSCC(=O)NCCc3ccc(Cl)cc3)c(C)o2)c1` here?
Answer: The value was inactive: -41.5%.

Question: For `COc1cc(/C=N/NC(=O)c2ccc3ccccc3c2)ccc1Oc1ccc([N+](=O)[O-])cn1`, which “activity change, positive = activation” value is on record?
Answer: Its value is inactive: -33.9%.

Question: For `Cn1cnnc1SCc1ccc(F)c2ccccc12`, which activity change, positive = activation is on record?
Answer: Its activity change, positive = activation is 40.5%.

Question: Which activity change, positive = activation does the source give for `CCn1c(SCC(=O)Nc2nccs2)nnc1-c1ccc(S(=O)(=O)N2CCCCC2)cc1` here?
Answer: Its activity change, positive = activation is -47.4%.

Question: For `CCN1CCN(c2ccc(NC(=O)c3cccc4ncccc34)cc2)CC1`, which activity change, positive = activation is on record?
Answer: The activity change, positive = activation was 35.1%.

Question: Which activity change, positive = activation does the source give for `Cc1cc(C)n2c3c(c(C#N)c2n1)CCCC3` here?
Answer: The activity change, positive = activation was 29.2%.

Question: For `CS(=O)(=O)N(CC(=O)N1CCOCC1)c1ccc2c(c1)OCO2`, which activity change, positive = activation is on record?
Answer: The activity change, positive = activation was 39.6%.

Question: With `CC(C)NC(=O)Cn1c(SCC(=O)N2CCc3ccccc3C2)nc2ccccc21` as the compound, how does the activity change, positive = activation read?
Answer: The activity change, positive = activation was 45.1%.

Question: For `Cc1cccc(NC(=O)N(Cc2cc3cc(C)cc(C)c3[nH]c2=O)CC2COCCO2)c1` (stereo not drawn), which activity change, positive = activation is on record?
Answer: The activity change, positive = activation was -35.4%.

Question: Which activity change, positive = activation does the source give for `CCOC(=O)c1ccccc1NS(=O)(=O)c1ccccc1` here?
Answer: Its activity change, positive = activation is 41.7%.

Question: With `CCCOC(=O)c1ccc(NC(=O)Cc2csc(C)n2)cc1` as the compound, how does the activity change, positive = activation read?
Answer: The activity change, positive = activation was -30.7%.

Question: Which “activity change, positive = activation” value does the source give for `CCN1C(C(=O)c2ccccc2)=C(OC(=O)c2ccc(Cl)cc2)c2ccccc2S1(=O)=O` here?
Answer: Its value is inactive: -30.4%.

Question: Which activity change, positive = activation does the source give for `Fc1ccccc1CSc1nnnn1-c1ccc2c(c1)OCO2` here?
Answer: The activity change, positive = activation was 40.3%.

Question: Which “activity change, positive = activation” value does the source give for `CC(C)NS(=O)(=O)c1ccc(OCC(=O)N2CCN(c3cccc(Cl)c3)CC2)cc1` here?
Answer: Its value is inactive: -62.8%.

Question: Which activity change, positive = activation does the source give for `CCOC(=O)CCc1c(C)nc2cc(-c3ccc(F)cc3)[nH]n2c1=O` here?
Answer: The activity change, positive = activation was 29.6%.

Question: Which Potency does the source give for `Cc1ccc(OCC(=O)O/N=C(\N)c2ccccn2)cc1` here?
Answer: The Potency was active: 12.6 µM.

Question: With `COc1cc([N+](=O)[O-])ccc1N/C=C/C(=O)c1cccs1` as the compound, how does the Potency read?
Answer: The Potency was active: 1.58 µM.

Question: With `Cc1ccc(C)c(OCCOCCN2CC(C)OC(C)C2)c1C` (stereo not drawn) as the compound, how does the activity change, positive = activation read?
Answer: Its activity change, positive = activation is -41.3%.

Question: Which activity change, positive = activation does the source give for `Cc1[nH]n(-c2cccc(Cl)c2)c(=O)c1/C=N/n1c(C)nc2ccccc2c1=O` here?
Answer: The activity change, positive = activation was -59.2%.

Question: For `Cc1ccc(/C=C/C(=O)N2CCc3ccccc32)o1`, which activity change, positive = activation is on record?
Answer: The activity change, positive = activation was 314%.

Question: For `Cc1cccc(NC(c2cccc(Cl)c2)c2ccc3cccnc3c2O)n1` (stereo not drawn), which “activity change, positive = activation” value is on record?
Answer: The value was inactive: -31.5%.

Question: Which activity change, positive = activation does the source give for `CCOc1ccc(NC(=O)CSc2nnc3c(C)cc4ccccc4n23)cc1` here?
Answer: The activity change, positive = activation was 37.2%.

Question: For `CC(C)(C)C1CCc2[nH]nc(C(=O)O)c2C1` (stereo not drawn), which activity change, positive = activation is on record?
Answer: The activity change, positive = activation was 20.3%.

Question: With `COC(=O)c1cc2c(=O)n3cccc(C)c3nc2n(Cc2cccnc2)c1=N` as the compound, how does the activity change, positive = activation read?
Answer: Its activity change, positive = activation is 51.8%.

Question: Which activity change, positive = activation does the source give for `Cc1ccc(N2CC(C(=O)Nc3nnc(C(C)C)s3)CC2=O)cc1` (stereo not drawn) here?
Answer: Its activity change, positive = activation is 34.5%.
